Reference: patent US8697366
These are yes or no findings as the source states them, for the method shown. In cells and extracts the contact can be indirect. Some entries that bind do so weakly or less than the wild type. For some of these results: Sequences can lack the tags named with a protein.

Amino acid sequences for entries named in this document (tags omitted). Residues count along the entry.
UniProt P35222: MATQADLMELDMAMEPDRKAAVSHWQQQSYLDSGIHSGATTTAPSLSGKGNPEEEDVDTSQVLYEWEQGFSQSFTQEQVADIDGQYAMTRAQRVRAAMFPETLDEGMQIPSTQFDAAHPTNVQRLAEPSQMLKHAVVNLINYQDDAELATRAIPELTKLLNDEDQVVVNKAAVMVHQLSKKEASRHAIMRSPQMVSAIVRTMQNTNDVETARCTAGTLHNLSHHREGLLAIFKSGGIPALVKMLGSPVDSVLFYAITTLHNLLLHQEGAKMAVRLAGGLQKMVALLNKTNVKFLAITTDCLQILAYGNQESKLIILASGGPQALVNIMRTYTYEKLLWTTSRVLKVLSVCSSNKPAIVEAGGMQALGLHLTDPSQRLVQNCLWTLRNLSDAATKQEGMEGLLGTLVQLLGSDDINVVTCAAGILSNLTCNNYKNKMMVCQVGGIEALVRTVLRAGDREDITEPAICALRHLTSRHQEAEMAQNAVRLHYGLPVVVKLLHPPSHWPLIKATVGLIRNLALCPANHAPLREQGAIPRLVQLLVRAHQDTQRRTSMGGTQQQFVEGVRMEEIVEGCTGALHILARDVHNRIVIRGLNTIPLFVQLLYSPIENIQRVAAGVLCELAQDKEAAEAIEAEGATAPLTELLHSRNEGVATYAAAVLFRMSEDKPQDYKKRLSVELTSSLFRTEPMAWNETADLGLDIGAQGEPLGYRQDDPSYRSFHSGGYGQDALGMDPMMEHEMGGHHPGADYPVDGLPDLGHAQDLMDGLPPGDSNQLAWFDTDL
UniProt Q15596, residues 2-1464: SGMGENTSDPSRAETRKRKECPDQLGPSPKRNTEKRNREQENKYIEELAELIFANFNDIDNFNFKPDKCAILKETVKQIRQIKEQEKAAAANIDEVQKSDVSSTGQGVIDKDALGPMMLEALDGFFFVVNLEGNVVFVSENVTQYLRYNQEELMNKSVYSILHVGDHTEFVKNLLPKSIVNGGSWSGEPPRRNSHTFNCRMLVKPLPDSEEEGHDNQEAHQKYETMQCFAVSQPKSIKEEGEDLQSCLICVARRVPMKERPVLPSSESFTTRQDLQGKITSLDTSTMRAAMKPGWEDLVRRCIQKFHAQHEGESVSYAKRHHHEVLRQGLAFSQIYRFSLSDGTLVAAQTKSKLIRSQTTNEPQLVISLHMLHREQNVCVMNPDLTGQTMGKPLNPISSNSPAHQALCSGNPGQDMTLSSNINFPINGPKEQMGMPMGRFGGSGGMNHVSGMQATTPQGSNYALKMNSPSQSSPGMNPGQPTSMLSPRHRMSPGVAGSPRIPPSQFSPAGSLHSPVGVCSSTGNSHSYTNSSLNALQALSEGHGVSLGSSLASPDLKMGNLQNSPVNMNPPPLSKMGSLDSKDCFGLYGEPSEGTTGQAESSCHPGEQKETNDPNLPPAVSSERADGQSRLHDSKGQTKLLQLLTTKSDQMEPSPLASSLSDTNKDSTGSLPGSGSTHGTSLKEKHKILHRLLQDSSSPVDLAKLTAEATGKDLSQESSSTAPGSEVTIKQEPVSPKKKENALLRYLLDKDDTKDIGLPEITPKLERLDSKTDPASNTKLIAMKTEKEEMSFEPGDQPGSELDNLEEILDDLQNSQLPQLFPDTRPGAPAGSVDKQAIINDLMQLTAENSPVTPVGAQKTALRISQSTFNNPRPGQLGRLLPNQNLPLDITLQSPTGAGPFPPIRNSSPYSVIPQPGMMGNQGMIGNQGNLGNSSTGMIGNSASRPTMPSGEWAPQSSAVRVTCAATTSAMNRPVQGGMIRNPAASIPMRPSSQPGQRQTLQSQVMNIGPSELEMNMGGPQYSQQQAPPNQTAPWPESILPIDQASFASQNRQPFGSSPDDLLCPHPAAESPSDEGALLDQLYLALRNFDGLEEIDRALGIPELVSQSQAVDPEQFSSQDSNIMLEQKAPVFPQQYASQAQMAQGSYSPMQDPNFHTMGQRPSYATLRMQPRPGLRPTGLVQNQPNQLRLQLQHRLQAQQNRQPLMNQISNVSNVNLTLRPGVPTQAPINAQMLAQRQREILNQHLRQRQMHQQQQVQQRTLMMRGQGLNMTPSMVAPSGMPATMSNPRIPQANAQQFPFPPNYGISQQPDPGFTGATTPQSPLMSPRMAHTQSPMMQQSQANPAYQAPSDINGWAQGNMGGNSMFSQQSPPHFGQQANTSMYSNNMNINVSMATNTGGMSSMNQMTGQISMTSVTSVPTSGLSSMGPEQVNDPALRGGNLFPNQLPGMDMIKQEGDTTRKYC

What was measured:
PKCα = PKCα (UniProt P17252); assay: in vivo coimmunoprecipitation with various PKC isoforms
β-catenin = β-catenin (UniProt P35222); assay: endogenous coimmunoprecipitation in HEK293 cells
[1] = target: glucocorticoid receptor-interacting protein 1 (GRIP1) (UniProt Q15596); assay: anti-Flag M2 affinity purification from HEK293 extracts, LC-MS/MS and immunoblot of eluates
[2] = target: glucocorticoid receptor-interacting protein 1 (GRIP1) (UniProt Q15596); assay: anti-Flag purification from HEK293 cells, LC-MS/MS; detected in the eluates by immunoblot

Binder | binding (PKCα) | binding (β-catenin) | binding [1] | binding [2]
RORα (receptor, UniProt P35398 1-523, looked up) MESAPAAPDPAASEPGSSGADAAAGSRETPLNQESARKSEPPAPVRRQSYSSTSRGISVTKKTHTSQIEIIPCKICGDKSSGIHYGVITCEGCKGFFRRSQQSNATYSCPRQKNCLIDRTSRNRCQHCRLQKCLAVGMSRDAVKFGRMSKKQRDSLYAEVQKHRMQQQQRDHQQQPGEAEPLTPTYNISANGLTELHDDLSNYIDGHTPEGSKADSAVSSFYLDIQPSPDQSGLDINGIKPEPICDYTPASGFFPYCSFTNGETSPTVSMAELEHLAQNISKSHLETCQYLREELQQITWQTFLQEEIENYQNKQREVMWQLCAIKITEAIQYVVEFAKRIDGFMELCQNDQIVLLKAGSLEVVFIRMCRAFDSQNNTVYFDGKYASPDVFKSLGCEDFISFVFEFGKSLCSMHLTEDEIALFSAFVLMSADRSWLQEKVKIEKLQQKIQLALQHVLQKNHREDGILTKLICKVSTLRALCGRHTEKLMAFKAIYPDIVRLHFPPLYKELFTSEFEPAMQIDG | binds | binds | – | –
Flag-tagged RORα (receptor, UniProt P35398 1-523, looked up, not shown: small tags and cut ends) MESAPAAPDPAASEPGSSGADAAAGSRETPLNQESARKSEPPAPVRRQSYSSTSRGISVTKKTHTSQIEIIPCKICGDKSSGIHYGVITCEGCKGFFRRSQQSNATYSCPRQKNCLIDRTSRNRCQHCRLQKCLAVGMSRDAVKFGRMSKKQRDSLYAEVQKHRMQQQQRDHQQQPGEAEPLTPTYNISANGLTELHDDLSNYIDGHTPEGSKADSAVSSFYLDIQPSPDQSGLDINGIKPEPICDYTPASGFFPYCSFTNGETSPTVSMAELEHLAQNISKSHLETCQYLREELQQITWQTFLQEEIENYQNKQREVMWQLCAIKITEAIQYVVEFAKRIDGFMELCQNDQIVLLKAGSLEVVFIRMCRAFDSQNNTVYFDGKYASPDVFKSLGCEDFISFVFEFGKSLCSMHLTEDEIALFSAFVLMSADRSWLQEKVKIEKLQQKIQLALQHVLQKNHREDGILTKLICKVSTLRALCGRHTEKLMAFKAIYPDIVRLHFPPLYKELFTSEFEPAMQIDG | – | – | binds | binds
